## Library screening results

The filed quantity is “Percent Effect” (%).
The controls that fix the scale are not given in the record; negative values are as filed.
This is an unselected part of the compounds tested.
A dash means the value is not listed here; it may have been measured.

A: 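Whole-cell assay for inhibitors of Mycobacterium tuberculosis growth, labelled Cornell in the record; the read-out is not stated. The concentration is filed as 10 mM, unlikely as a test dose, so the dose is not known. The record gives no direction; compounds strong in two other growth screens of this library score well above the rest, so higher reads as stronger inhibition. Size under these conditions: about 53,000 compounds, about 900 of them at 50% or above in at least one test.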
B: 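Assay on Mycobacterium tuberculosis, filed only as a heat shock assay from Cornell; the read-out is not stated. The concentration is filed as 10 mM, unlikely as a test dose, so the dose is not known. The record gives no direction; compounds that gave an IC50 in retests scored well above the rest, so higher reads as stronger inhibition. About 69,000 compounds were tested under these conditions; 1.4% (about 930) showed 50% or more at least once.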

SMILES,A,B
Cc1csc(N2CCCN(C(=O)C3(C#N)CCCCC3)CC2)n1,-,-11.93
Cc1ncsc1-c1nc(CC2CCN(C)CC2)nn1Cc1ccccc1,-12.23,-38.24
CC(C)NCc1nc(-c2ccc3c(c2)OCO3)c[nH]1.Cl.Cl,10.71,-9.022
COCCOCCNC(=O)N1CCN(c2ccccc2C#N)CC1,-,14.04
Cc1ccc(CNC(=O)c2cc(CN3CCC(O)CC3)on2)s1,-2.25,13.9
O=S(=O)(NCC1(O)CCOCC1)c1c(F)cccc1F,12.7,7.54
O=C(O)C(F)(F)F.O=C(O)C(F)(F)F.[H][C@@]12COC[C@]1([H])[C@@H](OCc1csc(C)n1)CN2Cc1cccs1,7.41,-27.56
O=C(O)C(F)(F)F.[H][C@@]12CCN(CC(=O)NC)C[C@]1([H])CN(C(=O)c1cccn1C)C2,-,-26.45
O=C(O)C(F)(F)F.c1csc(CNCC2COCc3c(-c4ccoc4)nnn3C2)n1 (centres unmarked),-21.65,4.364
CCOc1ccc(Br)cc1C1CCCCN1.Cl (centres unmarked),32.36,18.96
Oc1ccc2oc3c(c2c1CN1CCOCC1)CCCC3,2.19,35.23
O=C(NC1CCN(c2nccs2)CC1)c1cccs1,-33.72,4.029
CC(Cn1ccnc1)NCc1n[nH]c2c1CCC2 (centres unmarked),17.51,12.28
O=C(CN1CCCCC1Cn1cncn1)NC1CCN(C2CC2)CC1 (centres unmarked),-,3.044
O=C(O)C(F)(F)F.[H][C@@]12CCN(C(=O)c3ccsc3)[C@]1([H])CCC(=O)N2Cc1ccncc1,-11.79,-17.83
O=C(O)C(F)(F)F.O=C1COC2(COCCN(Cc3ccsc3)C2)CN1c1ccoc1 (centres unmarked),-47.88,-6.356
CCS(=O)(=O)N1CCCC2(COCCN(c3cnccn3)C2)C1.O=C(O)C(F)(F)F (centres unmarked),1.861,-8.691
CC[C@H](C)[C@H](N)C(=O)Nc1nc(-c2cnc(N(C)CCO)nc2)cs1,10.03,4.317
Cc1cc(C2CCCN(Cc3ncc(C(C)C)o3)C2)n[nH]1 (centres unmarked),28.34,20.78
CCCc1cc(C(=O)NCCCC(=O)N2Cc3ccccc3C2)[nH]n1,-9.156,9.709
[H][C@@]12CCCCCN(C)[C@@]1([H])[C@H](c1ccccc1)CN2S(=O)(=O)C(C)C,19.37,-6.818
Cn1cc(CN2Cc3cn(C)nc3C(COCC3CC3)C2)cn1 (centres unmarked),16.89,14.84
Cc1ccc2c(n1)N(Cc1cccnc1)CCN(C(=O)C1CCC1)C2.O=C(O)C(F)(F)F.O=C(O)C(F)(F)F,10.73,3.87
COc1ccc(C(=O)Nc2c(C(=O)N(C)C)nn(C)c2C)cc1,-,9.559
CCS(=O)(=O)N1CCC2(CCN(Cc3nccs3)CC2)CC1.O=C(O)C(F)(F)F,-16.25,-21.08
CCc1nc(CN(C)C2CCN(CCc3cccs3)C2)no1 (centres unmarked),-,-5.957
O=C1CC(NCc2cnc(C3CCCCC3)nc2)CN1c1ccccc1 (centres unmarked),-,-28.06
O=C(c1cncs1)N1CCCC1c1ccn[nH]1 (centres unmarked),104.4,7.314
O=C(NC[C@@H]1CCCO1)c1cc(Br)cnc1N1CCCCC1,14.08,20.34
COc1c(C(=O)NC(C)CC(=O)c2cccs2)c(C)nn1C (centres unmarked),6.785,7.999
O=C(c1cnn2cccnc12)N1CCCC(n2ccnc2)C1 (centres unmarked),-,-8.582
CCn1cc(C(=O)NCCN2CCCc3ccccc32)c(C)n1,-,4.082
COc1cccc(CNc2nnc(C(C)(C)C)o2)c1OC,9.81,2.535
CC(C)c1noc(CN(Cc2ccccc2F)C2CC2)n1,14.34,10.77
CC(C)(C)CC(=O)NCC(=O)NS(=O)(=O)c1cccnc1,-21.07,-5.603
CCC(CC)C(=O)Nc1ccc2oc(=O)n(CCN(C)C)c2c1,-48.35,-28.2
CCCn1nc2c(cc1=O)CN(c1ncnc3ccsc13)CC2,-,6.643
CC(C)N1CCc2ncn(C)c2C1C(=O)N1CCOCC1.O=C(O)C(F)(F)F (centres unmarked),-36.23,-11.08
Cc1c(C(=O)N2CCSCC2)sc2nc(C(F)(F)F)ccc12,12.39,-3.781
Cn1cccc1C(=O)NCc1cn2c(n1)CN(C(=O)c1ccsc1)CC2,22.78,3.671
CC(NC(=O)N(C)Cc1ccncc1)c1cn(-c2ccccc2)nn1 (centres unmarked),15.28,-20.62
CNC(=O)c1cn2cc(-c3cccc(Cl)c3)n(CC3CC3)c(=O)c2n1,-,-14.67
Cc1cccc(C)c1Oc1ncccc1CNC(=O)C1COC(=O)N1 (centres unmarked),4.415,-12.24
c1cc(-c2nnc(C3(c4ccc5c(c4)OCO5)CCOCC3)o2)ccn1,16.94,8.976
COc1cccc([C@@H]2CCN(Cc3c[nH]c(C)n3)C[C@H]2O)c1,-41.35,-10.03
CNS(=O)(=O)c1ccc(CN2CCCC2c2ccc(F)cc2)cc1 (centres unmarked),26.15,-5.44
Cc1cnccc1-n1nc(C(C)C)nc1CCN(C)S(C)(=O)=O,-7.882,16.5
Cc1ccc(-n2cnc(Cl)c2CO)cc1,15.75,8.158
Cn1cccc1C(=O)N1CCC(c2nccn2Cc2ccncc2)CC1,9.428,-24.88
O=C(O)C(F)(F)F.[H][C@]12CCNCC[C@@]1([H])S(=O)(=O)CCN2C(=O)c1ccccc1,-6.408,-2.982
Cc1cc(C)n(CC2CCCCN2CC(=O)Nc2nnc(C)s2)n1 (centres unmarked),18.8,10.12
CC(C#N)CN(C)C(=O)c1cn(-c2ccc(Br)cc2)cn1 (centres unmarked),-,-5.395
Cc1nc(C)n(CC2CCCN(c3ncnc4ccccc34)C2)n1 (centres unmarked),-29.18,-1.971
COc1cccc(CC(C)NCC(=O)Nc2ccccc2C)c1 (centres unmarked),18.05,-9.459
O=C(c1nc(Cc2c[nH]c3ccccc23)no1)N1CCCC1,8.484,3.926
CC(C)Nc1nc(N2CCCC2)nc2c1CCN(S(C)(=O)=O)CC2.O=C(O)C(F)(F)F.O=C(O)C(F)(F)F,35.39,1.197
CC(C)c1ccc(-c2nnn(CCNS(C)(=O)=O)n2)cc1,18.36,-35.89
Cc1n[nH]c(C2CN(C(=O)c3ccc4c(c3)COC4)CCO2)n1 (centres unmarked),-12.25,3.761
Cc1ccc(CN(C)C(=O)c2cccc(NC(N)=O)c2)o1,-0.7702,9.181
Cc1ccc(S(=O)(=O)N[C@H](CO)C(C)C)cc1N(C)C,0.7613,-1.71
c1cnn(-c2ccc(CN3CCCC(Cn4cncn4)C3)cc2)c1 (centres unmarked),-,-11.43
CSCCC(C)NC(=O)N1CCSC(C)(C)C1 (centres unmarked),-,-16.31
CC(CCc1ccccc1)NC(=O)CN1CCOCC1 (centres unmarked),-,-16.05
CC(C)N(C)[C@@H]1CCN(Cc2ccco2)[C@H]1Cc1ccccc1,-31.82,-46.15
CC(C)c1nnc(CCC(=O)N2CCOC(c3cnccn3)C2)o1 (centres unmarked),19.47,5.99
C=C/C=c1\c(=C/C)oc2c(NCc3ccccc3)nc(C)nc12,70.49,104.3
CCOC(=O)C1CCN(C(=O)c2cc(OCC)c3ccoc3c2)CC1,-19.15,-6.997
O=C(CCc1cccnc1)N1CCCCC1c1ccn2ccnc2n1 (centres unmarked),-1.583,-17.59
CN(C)S(=O)(=O)NCc1nn(CCN2CCCC2)c(=O)c2ccccc12,-20.91,28.35
O=C(O)C(F)(F)F.[H][C@@]12CCN(C(=O)Cc3ccccc3)[C@@]1([H])CC(=O)N2Cc1cccnc1,-10.02,-11.77
CC1(C2CCN(CC(N)=O)CC2)CN(Cc2ccccc2)C(=O)O1 (centres unmarked),-5.024,-5.609
CCS(=O)(=O)N(C)CCCNCc1c(C)nn(C)c1N(C)C,-,11.4

The last 7 entries again:

SMILES	A	B
C=C/C=c1\c(=C/C)oc2c(NCc3ccccc3)nc(C)nc12	70.49	104.3
CCOC(=O)C1CCN(C(=O)c2cc(OCC)c3ccoc3c2)CC1	-19.15	-6.997
O=C(CCc1cccnc1)N1CCCCC1c1ccn2ccnc2n1 (centres unmarked)	-1.583	-17.59
CN(C)S(=O)(=O)NCc1nn(CCN2CCCC2)c(=O)c2ccccc12	-20.91	28.35
O=C(O)C(F)(F)F.[H][C@@]12CCN(C(=O)Cc3ccccc3)[C@@]1([H])CC(=O)N2Cc1cccnc1	-10.02	-11.77
CC1(C2CCN(CC(N)=O)CC2)CN(Cc2ccccc2)C(=O)O1 (centres unmarked)	-5.024	-5.609
CCS(=O)(=O)N(C)CCCNCc1c(C)nn(C)c1N(C)C	-	11.4

From ChEMBL document CHEMBL3988442, “University of Dundee, Small-Polar-MMV Screening Library” (2021).